# Results are given in words; binding and its absence hold for the method and conditions named. In cells and extracts the contact can be indirect. Some entries that bind do so weakly or less than the wild type. For some of these results: Sequences can lack the tags named with a protein.
# The chains behind the UniProt entries cited, without tags or fusion partners. Where a name states a change or a piece, a line headed by the entry shows the natural chain unless it says otherwise.
# UniProt Q13772: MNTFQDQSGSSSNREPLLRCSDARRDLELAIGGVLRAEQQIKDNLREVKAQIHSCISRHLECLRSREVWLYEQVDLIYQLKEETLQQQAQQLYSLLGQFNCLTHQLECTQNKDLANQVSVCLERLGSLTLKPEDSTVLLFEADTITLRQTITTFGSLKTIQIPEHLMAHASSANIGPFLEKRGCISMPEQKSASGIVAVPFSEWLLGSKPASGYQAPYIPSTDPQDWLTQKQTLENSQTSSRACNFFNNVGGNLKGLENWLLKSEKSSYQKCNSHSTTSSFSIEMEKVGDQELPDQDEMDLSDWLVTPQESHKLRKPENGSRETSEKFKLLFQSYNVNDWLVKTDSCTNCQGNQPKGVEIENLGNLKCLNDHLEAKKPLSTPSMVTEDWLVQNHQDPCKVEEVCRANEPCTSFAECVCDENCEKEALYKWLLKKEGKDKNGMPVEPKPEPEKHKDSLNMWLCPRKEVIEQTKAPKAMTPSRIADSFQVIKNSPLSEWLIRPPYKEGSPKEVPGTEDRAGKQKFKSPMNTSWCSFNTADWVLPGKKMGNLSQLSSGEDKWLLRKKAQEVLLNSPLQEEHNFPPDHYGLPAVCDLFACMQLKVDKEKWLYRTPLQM
# UniProt P03372: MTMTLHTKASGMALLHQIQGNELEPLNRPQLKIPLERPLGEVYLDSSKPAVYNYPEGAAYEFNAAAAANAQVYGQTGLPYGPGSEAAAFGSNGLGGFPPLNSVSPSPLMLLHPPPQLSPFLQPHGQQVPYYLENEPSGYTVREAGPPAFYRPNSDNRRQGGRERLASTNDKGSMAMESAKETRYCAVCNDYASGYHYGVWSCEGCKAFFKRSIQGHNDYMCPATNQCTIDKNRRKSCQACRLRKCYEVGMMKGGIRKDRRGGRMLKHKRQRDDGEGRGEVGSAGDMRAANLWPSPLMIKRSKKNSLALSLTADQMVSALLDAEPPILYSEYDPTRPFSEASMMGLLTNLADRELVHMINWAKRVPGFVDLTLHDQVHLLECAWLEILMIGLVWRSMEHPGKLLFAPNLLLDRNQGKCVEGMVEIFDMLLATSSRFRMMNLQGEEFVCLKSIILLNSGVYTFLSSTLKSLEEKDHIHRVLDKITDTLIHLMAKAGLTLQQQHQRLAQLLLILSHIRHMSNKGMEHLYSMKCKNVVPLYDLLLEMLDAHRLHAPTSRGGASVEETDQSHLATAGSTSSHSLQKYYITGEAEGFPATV
# Experiments:
# [1] = target: T1, TR4 orphan receptor (TR4), full-length (human) (UniProt P49116); assay: GST pull-down, GST-ER-LBD on beads, [35S]-TR4, with or without 1 µM E2
# T1 sequence: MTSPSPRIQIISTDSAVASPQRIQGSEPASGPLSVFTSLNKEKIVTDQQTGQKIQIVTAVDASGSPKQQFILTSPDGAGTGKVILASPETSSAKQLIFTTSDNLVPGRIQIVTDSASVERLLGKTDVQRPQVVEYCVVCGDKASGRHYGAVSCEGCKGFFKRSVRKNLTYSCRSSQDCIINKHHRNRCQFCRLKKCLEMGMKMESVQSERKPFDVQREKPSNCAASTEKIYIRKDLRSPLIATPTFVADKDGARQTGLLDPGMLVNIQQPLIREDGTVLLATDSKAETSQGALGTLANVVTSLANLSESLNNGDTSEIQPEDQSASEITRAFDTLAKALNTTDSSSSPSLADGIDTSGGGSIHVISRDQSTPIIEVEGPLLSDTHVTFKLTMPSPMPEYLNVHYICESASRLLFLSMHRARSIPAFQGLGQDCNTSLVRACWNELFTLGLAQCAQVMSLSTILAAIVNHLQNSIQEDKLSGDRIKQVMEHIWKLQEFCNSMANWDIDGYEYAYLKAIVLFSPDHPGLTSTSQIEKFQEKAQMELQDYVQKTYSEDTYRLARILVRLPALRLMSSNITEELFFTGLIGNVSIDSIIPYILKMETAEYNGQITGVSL
# [2] = target: T2, GST-TR4 fusion protein (human) (UniProt P49116); assay: GST pull-down, GST-TR4 on beads
# T2 sequence: T1 sequence
# [3] = target: ARA70 (UniProt Q13772); assay: GST pull-down assay and mammalian two-hybrid assay
# [4] = target: T2, GST-TR4 fusion protein (human); assay: GST pull-down, GST-TR4 on beads (figure legend)
Substance,binding [1],binding [2],binding [3],binding [4]
GST-ER-#3 (aa 312-595 of ER) (from UniProt P03372 312-595),binds,–,–,–
"estrogen receptor (ER), full-length (from UniProt P03372 1-595)",–,binds,binds,binds

# Reference: patent US20030235860A1, “Interactions between AR, ER, TR2, and TR4” (priority 1999, published 2003)
